Results on 18 compounds are retold here after PubChem BioAssay AID2685 (National Center for Advancing Translational Sciences (NCATS), 2010).

The experiment is described as follows: qHTS Assay for Lipid Storage Modulators in Drosophila S3 Cells.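 For cell number change: cells counted by Cell Tracker Red CMTPX staining in the red channel.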 The note with it: BODIPY lipid droplet fluorescence, 18-24 h; for cell number change: measured here: cell count max response, cells fed with added oleic acid. A digest of the protocol: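 Laser-scanning cytometry quantifies lipid droplet accumulation (500–530 nm total intensity; droplet/cell object ratio) in oleic acid-fed (400 uM added) Drosophila S3 cells treated with a concentration series. 20 uM Triacsin C defined 100% inhibition.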

[1] abbreviates: measured here: lipid fluorescence (Fed channel) AC50, cells fed with added oleic acid.
The mark [2] stands for this setting: measured here: cell number channel AC50, cells fed with added oleic acid.

The list shows a part of the results. Further columns of the screen follow, without active or inactive calls. The list favours compounds with an active or inconclusive main result. Words in brackets tell the shape of the fitted curve; partial curves, single points and poor fits give uncertain potencies.

Take `O=C(/C=C/c1ccccc1[N+](=O)[O-])c1ccccc1Br`: the cell number change was -7.69%. As for `O=[N+]([O-])c1cccc(C2(O)COc3ccccc3O2)c1` (stereo unspecified), the cell number change was determined as 36.9%.

As usually defined, the AC50 is the concentration at which the activity in the assay is half-maximal. The low end stands for greater potency, the high end for weaker potency. For `CCC(C)(C)n1nnnc1CN1CCN(c2nc3ccc(C)cc3cc2C#N)CC1`, the cell number change was -15.2%. Further, the AC50 under setting [1] was 6.51 µM [rising, single point]. Consider `CCCc1cc(=O)[nH]c(SCC(=O)NCc2ccc3c(c2)OCO3)n1`, for which the cell number change came to 30.4%. Besides, under setting [2], the concentration at half-maximal activity (AC50) was 0.013 µM [rising, full curve, poor fit]. In addition, the AC50 under setting [1] was 0.092 µM [rising, full curve, poor fit]. In the case of `CCOC(=O)N1CCN(C(=O)c2cn(C)c3ccc(S(=O)(=O)N4CCOCC4)cc3c2=O)CC1`, the cell number change is -13.1%. Take `Cn1c(Nn2cnnc2)nc2ccccc21`: the cell number change was -16.7%. Also, the AC50 under setting [2] was 0.0517 µM [falling, full curve, poor fit]. Moreover, the AC50 under setting [1] is 0.651 µM [falling, full curve, poor fit].

For `O=C(NNC(=O)C1CC=CCC1)c1ccccc1Br` (stereo unspecified), the cell number change was found to be 17.1%. In addition, the AC50 under setting [1] is 3.26 µM [rising, full curve, poor fit]. On to `Cc1ccc(NC(=O)Cn2ncn3c(cc4ccccc43)c2=O)cc1F`, for which the cell number change was -4.58%. Besides, the AC50 under setting [2] is 6.51 µM [falling, single point]. With `Cc1nc2sccn2c(=O)c1S(=O)(=O)Nc1ccc(N2CCOCC2)c(Cl)c1`, the cell number change was -2.31%. For the same compound, under setting [1], the AC50 is 0.13 µM [falling, partial curve, poor fit]. Consider `CCOc1ccc(C(=O)NCC(=O)NC(C)c2ccc(-n3ccnc3)cc2)cc1OCC` (stereo unspecified), for which the AC50 under setting [1] was 6.51 µM [rising, single point]. On to `CSCCC(NC(=O)c1ccc(Cl)cc1)C(=O)OCC(C)=O` (stereo unspecified), for which, under setting [2], the AC50 is 0.0731 µM [rising, full curve, poor fit]. As for `COc1ccc2cc(C(c3nnnn3C(C)(C)C)N3CCc4ccccc4C3)c(=O)[nH]c2c1` (stereo unspecified), the cell number change was -13.4%. In addition, the AC50 under setting [1] was 6.51 µM [rising, single point]. In the case of `Cc1ccc(-n2ncc3c2CCCC3NC(=O)CCCN2CCCC2=O)cc1C` (stereo unspecified), the cell number change is -6.25%. As for `CC1(C)CC(=O)C=C(NCCN2CCN(C(=O)Nc3ccc(Cl)c(Cl)c3)CC2)C1`, the cell number change came to 17.1%. Also, under setting [1], the AC50 was 29.1 µM [rising, single point]. Regarding `O=C(CSc1nc2sc3c(c2c(=O)n1-c1ccccc1)CCCC3)N/N=C/c1ccccc1C(=O)O`, the cell number change was determined as 22.6%. Also, under setting [1], the AC50 is 18.4 µM [falling, single point]. For `Cc1nc(NC(=O)CCc2ccccc2)sc1C`, the cell number change was -18%. Take `CC(=O)c1ccc(OCc2cc(C(=O)N3CC4C[C@@H]5CC3C[C@H](C4)C5)no2)cc1`: the cell number change is -9.54%. Moreover, the AC50 under setting [1] is 29.1 µM [falling, single point]. Regarding `CCOc1ccc(CCNS(=O)(=O)c2cn(C)cn2)cc1OCC`, the cell number change was -33.1%. Also, the AC50 under setting [2] was 9.2 µM [falling, partial curve].
